Laboratory results from patent US20160169913A1.
No constants are given. Whether binding was seen depends on the method and setting. Some results given as binding are weak or reduced against the parent protein; the word gives no strength.

Chains of the proteins cited; added tags and fusions are not shown. Residues count along the entry.
UniProt P05067, residues 672-713: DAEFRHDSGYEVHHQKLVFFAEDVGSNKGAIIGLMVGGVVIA

Tests used:
[1] = target: Aβ oligomer (UniProt P05067); assay: PLISA compared with ELISA, O.D. against Aβ oligomer concentration
[2] = target: Aβ oligomer (UniProt P05067); assay: PLISA in buffer or 10% CSF, signal ratio of monomer or fiber to oligomer
[3] = target: Aβ oligomer (UniProt P05067); assay: PLISA dose response, Aβ oligomer in solution
[4] = target: Aβ oligomer (UniProt P05067); assay: PLISA in buffer and 10% CSF, signal ratio of monomer or fiber to oligomer

Measured: binding

KLVFFAEDVGSNKHAIIELMKGLVPRGSGK (biotin labeled with thrombin site linker at C-terminus (Table 1)) [peptide probe AD317 (P22, biotin labeled with thrombin site linker, at C-terminus)]
binds: all assays above
